We go through one molecule from patent US20110165660A1, “ENGINEERED MICROORGANISMS WITH ENHANCED FERMENTATION ACTIVITY” (VERDEZYNE, INC., priority 2009, published 2011).

The series can be described thus: Western blot (anti-6xHis) of xylose isomerase expression in yeast, total/soluble/insoluble extract. Further details: species or system Saccharomyces cerevisiae. As to conditions: His-tagged xylose isomerase in BY4742, FIG. 7.

B1: Ruminococcus flavefaciens: native xylose isomerase from Ruminococcus flavefaciens strain 17 (SEQ ID NO: 31) (protein, listed as Ruminococcus flavefaciens)
chain: MEFFSNIGKIQYQGPKSTDPLSFKYYNPEEVINGKTMREHLKFALSWWHTMGGDGTDMFGCGTTDKTWGQSDPAARAKAKVDAAFEIMDKLSIDYYCFHDRDLSPEYGSLKATNDQLDIVTDYIKEKQGDKFKCLWGTAKCFDHPRFMHGAGTSPSADVFAFSAAQIKKALESTVKLGGNGYVFWGGREGYETLLNTNMGLELDNMARLMKMAVEYGRSIGFKGDFYIEPKPKEPTKHQYDFDTATVLGFLRKYGLDKDFKMNIEANHATLAQHTFQHELRVARDNGVFGSIDANQGDVLLGWDTDQFPTNIYDTTMCMYEVIKAGGFTNGGLNFDAKARRGSFTPEDIFYSYIAGMDAFALGFRAALKLIEDGRIDKFVADRYASWNTGIGADIIAGKADFASLEKYALEKGEVTASLSSGRQEMLESIVNNVLFSL
As for B1, the “expression in soluble and insoluble fractions (western)” value is “expressed in both the soluble and insoluble fractions”. For the same molecule, the “expression in soluble and insoluble fractions (western)” value (listed as wild type R. flavefaciens xylose isomerase) is listed as “expressed in the soluble fraction”.
